PubChem BioAssay AID504744 – Drosophila RNAi Screening Center, 2011
Aim: 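Uncover factors, including feedback loops, that control dAkt activation in fly cells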 (primary screen). System: Drosophila Kc167 cells. Reagents: long dsRNA against Drosophila genes, 250 ng dsRNA per well of a 384-well plate. Time to read-out: 3 days of knock-down, then overnight serum-free starvation before stimulation. Conditions: bovine insulin at 387 nM for 10 minutes after 12 h without serum. Detection: 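Per-well phospho-dAkt level from an in-cell fluorescent antibody stain, divided by a DNA-dye signal; log2 residuals turned into z-scores that take cell number into account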. Rule for the call: 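Hit in the insulin screen when the two-replicate mean z-score is more extreme than plus or minus 2.5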.
In all, the deposit lists about 23,000 reagents; below is an unselected part of those with a known target gene and a result. In the full data, 98 (0.43%) are marked active. 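Only hit calls are given; the phospho-dAkt signals, z-scores and hit direction were not deposited.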 A plus sign joins genes that one reagent is predicted to hit. Reagent sequences are not shown.

CG3065 (GeneID 37818) [DRSC04333]: call = inactive
wdb (GeneID 43312) [DRSC14163]: call = active
CG42245 + MEP-1 [DRSC07993]: call = inactive
CG42245 + MEP-1 [DRSC08274]: call = inactive
CG42245 + MEP-1 [DRSC21460]: call = inactive
Targ1 (GeneID 40340) [DRSC11616]: call = inactive
CG34124 (GeneID 4379887) [DRSC00849]: call = inactive
Chchd2 (GeneID 32701) [DRSC19931]: call = inactive
Blm (GeneID 41366) [DRSC16911]: call = inactive
CG14903 (GeneID 42014) [DRSC15024]: call = inactive
CG31031 (retired record) (GeneID 318564) [DRSC13964]: call = inactive
Rok (GeneID 43916) [DRSC20277]: call = inactive
Ptth (GeneID 33238) [DRSC00356]: call = inactive
Ir76a (GeneID 40157) [DRSC10987]: call = inactive
bic (GeneID 45827) [DRSC07584]: call = inactive
tweek (GeneID 35026) [DRSC02433]: call = inactive
tweek (GeneID 35026) [DRSC02434]: call = inactive
tweek (GeneID 35026) [DRSC02785]: call = inactive
Dbp45A (GeneID 35917) [DRSC07395]: call = active
TwdlL (GeneID 43203) [DRSC16042]: call = inactive
CG13193 (GeneID 36256) [DRSC06318]: call = inactive
CG14627 (GeneID 31063) [DRSC18630]: call = inactive
CG32532 (GeneID 32943) [DRSC19556]: call = inactive
CG32532 (GeneID 32943) [DRSC19557]: call = inactive
CG32532 (GeneID 32943) [DRSC19558]: call = inactive
CG32532 (GeneID 32943) [DRSC21370]: call = inactive
alpha-PheRS (GeneID 31740) [DRSC18224]: call = inactive
Gpb5 (GeneID 3355097) [DRSC21241]: call = inactive
CG13244 (GeneID 34940) [DRSC21642]: call = inactive
Gnpnat (GeneID 43504) [DRSC15405]: call = inactive
DIP2 (GeneID 252479) [DRSC08582]: call = inactive
CG17919 (GeneID 40780) [DRSC12571]: call = inactive
CG7518 (GeneID 41599) [DRSC16253]: call = inactive
Gnf1 (GeneID 40607) [DRSC12351]: call = inactive
ATPCL (GeneID 36760) [DRSC05913]: call = inactive
CG15461 (GeneID 50122) [DRSC20532]: call = inactive
LysE (GeneID 38128) [DRSC08675]: call = inactive
CG2063 (GeneID 35952) [DRSC06811]: call = inactive
iav (GeneID 31621) [DRSC18363]: call = inactive
CG7742 (GeneID 33750) [DRSC03066]: call = inactive
Obp99d (GeneID 43496) [DRSC15046]: call = inactive
CG9581 (GeneID 33017) [DRSC20695]: call = inactive
CG9581 (GeneID 33017) [DRSC22247]: call = inactive
SPH93 (GeneID 35049) [DRSC02978]: call = inactive
CG8401 (GeneID 36770) [DRSC07165]: call = inactive
CG42233 (GeneID 43754) [DRSC14328]: call = inactive
CG42233 (GeneID 43754) [DRSC15416]: call = inactive
CG4935 (GeneID 34955) [DRSC01924]: call = inactive
Cyp28d2 (GeneID 33748) [DRSC03299]: call = inactive
CG14641 (GeneID 40529) [DRSC12227]: call = inactive
Ude (GeneID 42953) [DRSC15324]: call = inactive
CG14567 (GeneID 40420) [DRSC11728]: call = inactive
CG6168 (GeneID 39273) [DRSC10596]: call = inactive
fz (GeneID 45307) [DRSC11348]: call = inactive
Oseg2 (GeneID 38282) [DRSC08343]: call = inactive
sesB (GeneID 32007) [DRSC20371]: call = inactive
CG2224 (GeneID 43617) [DRSC15429]: call = inactive

Hits (from the list above):
wdb (GeneID 43312) [DRSC14163]: call = active
Dbp45A (GeneID 35917) [DRSC07395]: call = active
